The supplement of paper PMC10032668
The list shows a part of the results. The list holds hits alone, and they repeat only in part.

Chains of the proteins cited; added tags and fusions are not shown.
KPNA3, O00505, UniProt O00505, whole entry: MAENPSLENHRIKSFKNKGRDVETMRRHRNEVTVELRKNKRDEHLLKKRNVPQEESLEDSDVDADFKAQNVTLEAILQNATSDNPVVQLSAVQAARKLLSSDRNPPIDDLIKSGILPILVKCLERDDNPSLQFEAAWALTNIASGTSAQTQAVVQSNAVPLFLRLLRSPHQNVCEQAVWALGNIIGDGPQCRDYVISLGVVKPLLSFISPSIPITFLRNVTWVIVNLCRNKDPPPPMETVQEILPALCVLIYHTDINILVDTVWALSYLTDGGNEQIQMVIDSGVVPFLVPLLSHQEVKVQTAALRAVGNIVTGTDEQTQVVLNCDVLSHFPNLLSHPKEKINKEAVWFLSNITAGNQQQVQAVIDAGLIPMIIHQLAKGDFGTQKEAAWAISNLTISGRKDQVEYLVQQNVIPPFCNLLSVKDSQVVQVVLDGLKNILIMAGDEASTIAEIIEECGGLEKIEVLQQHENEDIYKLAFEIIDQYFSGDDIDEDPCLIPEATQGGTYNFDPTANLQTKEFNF
PFDN6, O15212, UniProt O15212, whole entry: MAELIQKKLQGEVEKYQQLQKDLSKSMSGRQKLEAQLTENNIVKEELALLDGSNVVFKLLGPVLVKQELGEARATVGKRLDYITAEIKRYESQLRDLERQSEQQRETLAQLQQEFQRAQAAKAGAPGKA
RANBP1, P43487, UniProt P43487, whole entry: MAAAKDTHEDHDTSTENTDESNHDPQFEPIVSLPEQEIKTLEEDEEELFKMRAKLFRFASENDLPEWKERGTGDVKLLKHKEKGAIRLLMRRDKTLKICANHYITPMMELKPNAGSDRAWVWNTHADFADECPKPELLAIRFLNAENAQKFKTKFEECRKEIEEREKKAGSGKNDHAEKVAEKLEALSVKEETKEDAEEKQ
AHSA1, O95433, UniProt O95433, whole entry: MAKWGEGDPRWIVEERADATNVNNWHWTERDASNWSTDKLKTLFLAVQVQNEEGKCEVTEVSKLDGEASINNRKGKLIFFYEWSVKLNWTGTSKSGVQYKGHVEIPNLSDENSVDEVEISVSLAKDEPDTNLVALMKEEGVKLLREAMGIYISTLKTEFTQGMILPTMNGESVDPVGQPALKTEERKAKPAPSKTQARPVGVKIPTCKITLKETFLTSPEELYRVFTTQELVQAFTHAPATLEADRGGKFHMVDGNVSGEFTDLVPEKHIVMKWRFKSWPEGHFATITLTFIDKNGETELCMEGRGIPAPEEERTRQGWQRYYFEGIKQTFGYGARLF
EIF1AX, P47813, UniProt P47813, whole entry: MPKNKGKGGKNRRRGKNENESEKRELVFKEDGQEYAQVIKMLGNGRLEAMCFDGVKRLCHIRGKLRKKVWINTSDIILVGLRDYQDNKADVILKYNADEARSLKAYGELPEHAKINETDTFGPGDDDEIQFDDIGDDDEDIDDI
HUWE1, Q7Z6Z7, UniProt Q7Z6Z7, whole entry: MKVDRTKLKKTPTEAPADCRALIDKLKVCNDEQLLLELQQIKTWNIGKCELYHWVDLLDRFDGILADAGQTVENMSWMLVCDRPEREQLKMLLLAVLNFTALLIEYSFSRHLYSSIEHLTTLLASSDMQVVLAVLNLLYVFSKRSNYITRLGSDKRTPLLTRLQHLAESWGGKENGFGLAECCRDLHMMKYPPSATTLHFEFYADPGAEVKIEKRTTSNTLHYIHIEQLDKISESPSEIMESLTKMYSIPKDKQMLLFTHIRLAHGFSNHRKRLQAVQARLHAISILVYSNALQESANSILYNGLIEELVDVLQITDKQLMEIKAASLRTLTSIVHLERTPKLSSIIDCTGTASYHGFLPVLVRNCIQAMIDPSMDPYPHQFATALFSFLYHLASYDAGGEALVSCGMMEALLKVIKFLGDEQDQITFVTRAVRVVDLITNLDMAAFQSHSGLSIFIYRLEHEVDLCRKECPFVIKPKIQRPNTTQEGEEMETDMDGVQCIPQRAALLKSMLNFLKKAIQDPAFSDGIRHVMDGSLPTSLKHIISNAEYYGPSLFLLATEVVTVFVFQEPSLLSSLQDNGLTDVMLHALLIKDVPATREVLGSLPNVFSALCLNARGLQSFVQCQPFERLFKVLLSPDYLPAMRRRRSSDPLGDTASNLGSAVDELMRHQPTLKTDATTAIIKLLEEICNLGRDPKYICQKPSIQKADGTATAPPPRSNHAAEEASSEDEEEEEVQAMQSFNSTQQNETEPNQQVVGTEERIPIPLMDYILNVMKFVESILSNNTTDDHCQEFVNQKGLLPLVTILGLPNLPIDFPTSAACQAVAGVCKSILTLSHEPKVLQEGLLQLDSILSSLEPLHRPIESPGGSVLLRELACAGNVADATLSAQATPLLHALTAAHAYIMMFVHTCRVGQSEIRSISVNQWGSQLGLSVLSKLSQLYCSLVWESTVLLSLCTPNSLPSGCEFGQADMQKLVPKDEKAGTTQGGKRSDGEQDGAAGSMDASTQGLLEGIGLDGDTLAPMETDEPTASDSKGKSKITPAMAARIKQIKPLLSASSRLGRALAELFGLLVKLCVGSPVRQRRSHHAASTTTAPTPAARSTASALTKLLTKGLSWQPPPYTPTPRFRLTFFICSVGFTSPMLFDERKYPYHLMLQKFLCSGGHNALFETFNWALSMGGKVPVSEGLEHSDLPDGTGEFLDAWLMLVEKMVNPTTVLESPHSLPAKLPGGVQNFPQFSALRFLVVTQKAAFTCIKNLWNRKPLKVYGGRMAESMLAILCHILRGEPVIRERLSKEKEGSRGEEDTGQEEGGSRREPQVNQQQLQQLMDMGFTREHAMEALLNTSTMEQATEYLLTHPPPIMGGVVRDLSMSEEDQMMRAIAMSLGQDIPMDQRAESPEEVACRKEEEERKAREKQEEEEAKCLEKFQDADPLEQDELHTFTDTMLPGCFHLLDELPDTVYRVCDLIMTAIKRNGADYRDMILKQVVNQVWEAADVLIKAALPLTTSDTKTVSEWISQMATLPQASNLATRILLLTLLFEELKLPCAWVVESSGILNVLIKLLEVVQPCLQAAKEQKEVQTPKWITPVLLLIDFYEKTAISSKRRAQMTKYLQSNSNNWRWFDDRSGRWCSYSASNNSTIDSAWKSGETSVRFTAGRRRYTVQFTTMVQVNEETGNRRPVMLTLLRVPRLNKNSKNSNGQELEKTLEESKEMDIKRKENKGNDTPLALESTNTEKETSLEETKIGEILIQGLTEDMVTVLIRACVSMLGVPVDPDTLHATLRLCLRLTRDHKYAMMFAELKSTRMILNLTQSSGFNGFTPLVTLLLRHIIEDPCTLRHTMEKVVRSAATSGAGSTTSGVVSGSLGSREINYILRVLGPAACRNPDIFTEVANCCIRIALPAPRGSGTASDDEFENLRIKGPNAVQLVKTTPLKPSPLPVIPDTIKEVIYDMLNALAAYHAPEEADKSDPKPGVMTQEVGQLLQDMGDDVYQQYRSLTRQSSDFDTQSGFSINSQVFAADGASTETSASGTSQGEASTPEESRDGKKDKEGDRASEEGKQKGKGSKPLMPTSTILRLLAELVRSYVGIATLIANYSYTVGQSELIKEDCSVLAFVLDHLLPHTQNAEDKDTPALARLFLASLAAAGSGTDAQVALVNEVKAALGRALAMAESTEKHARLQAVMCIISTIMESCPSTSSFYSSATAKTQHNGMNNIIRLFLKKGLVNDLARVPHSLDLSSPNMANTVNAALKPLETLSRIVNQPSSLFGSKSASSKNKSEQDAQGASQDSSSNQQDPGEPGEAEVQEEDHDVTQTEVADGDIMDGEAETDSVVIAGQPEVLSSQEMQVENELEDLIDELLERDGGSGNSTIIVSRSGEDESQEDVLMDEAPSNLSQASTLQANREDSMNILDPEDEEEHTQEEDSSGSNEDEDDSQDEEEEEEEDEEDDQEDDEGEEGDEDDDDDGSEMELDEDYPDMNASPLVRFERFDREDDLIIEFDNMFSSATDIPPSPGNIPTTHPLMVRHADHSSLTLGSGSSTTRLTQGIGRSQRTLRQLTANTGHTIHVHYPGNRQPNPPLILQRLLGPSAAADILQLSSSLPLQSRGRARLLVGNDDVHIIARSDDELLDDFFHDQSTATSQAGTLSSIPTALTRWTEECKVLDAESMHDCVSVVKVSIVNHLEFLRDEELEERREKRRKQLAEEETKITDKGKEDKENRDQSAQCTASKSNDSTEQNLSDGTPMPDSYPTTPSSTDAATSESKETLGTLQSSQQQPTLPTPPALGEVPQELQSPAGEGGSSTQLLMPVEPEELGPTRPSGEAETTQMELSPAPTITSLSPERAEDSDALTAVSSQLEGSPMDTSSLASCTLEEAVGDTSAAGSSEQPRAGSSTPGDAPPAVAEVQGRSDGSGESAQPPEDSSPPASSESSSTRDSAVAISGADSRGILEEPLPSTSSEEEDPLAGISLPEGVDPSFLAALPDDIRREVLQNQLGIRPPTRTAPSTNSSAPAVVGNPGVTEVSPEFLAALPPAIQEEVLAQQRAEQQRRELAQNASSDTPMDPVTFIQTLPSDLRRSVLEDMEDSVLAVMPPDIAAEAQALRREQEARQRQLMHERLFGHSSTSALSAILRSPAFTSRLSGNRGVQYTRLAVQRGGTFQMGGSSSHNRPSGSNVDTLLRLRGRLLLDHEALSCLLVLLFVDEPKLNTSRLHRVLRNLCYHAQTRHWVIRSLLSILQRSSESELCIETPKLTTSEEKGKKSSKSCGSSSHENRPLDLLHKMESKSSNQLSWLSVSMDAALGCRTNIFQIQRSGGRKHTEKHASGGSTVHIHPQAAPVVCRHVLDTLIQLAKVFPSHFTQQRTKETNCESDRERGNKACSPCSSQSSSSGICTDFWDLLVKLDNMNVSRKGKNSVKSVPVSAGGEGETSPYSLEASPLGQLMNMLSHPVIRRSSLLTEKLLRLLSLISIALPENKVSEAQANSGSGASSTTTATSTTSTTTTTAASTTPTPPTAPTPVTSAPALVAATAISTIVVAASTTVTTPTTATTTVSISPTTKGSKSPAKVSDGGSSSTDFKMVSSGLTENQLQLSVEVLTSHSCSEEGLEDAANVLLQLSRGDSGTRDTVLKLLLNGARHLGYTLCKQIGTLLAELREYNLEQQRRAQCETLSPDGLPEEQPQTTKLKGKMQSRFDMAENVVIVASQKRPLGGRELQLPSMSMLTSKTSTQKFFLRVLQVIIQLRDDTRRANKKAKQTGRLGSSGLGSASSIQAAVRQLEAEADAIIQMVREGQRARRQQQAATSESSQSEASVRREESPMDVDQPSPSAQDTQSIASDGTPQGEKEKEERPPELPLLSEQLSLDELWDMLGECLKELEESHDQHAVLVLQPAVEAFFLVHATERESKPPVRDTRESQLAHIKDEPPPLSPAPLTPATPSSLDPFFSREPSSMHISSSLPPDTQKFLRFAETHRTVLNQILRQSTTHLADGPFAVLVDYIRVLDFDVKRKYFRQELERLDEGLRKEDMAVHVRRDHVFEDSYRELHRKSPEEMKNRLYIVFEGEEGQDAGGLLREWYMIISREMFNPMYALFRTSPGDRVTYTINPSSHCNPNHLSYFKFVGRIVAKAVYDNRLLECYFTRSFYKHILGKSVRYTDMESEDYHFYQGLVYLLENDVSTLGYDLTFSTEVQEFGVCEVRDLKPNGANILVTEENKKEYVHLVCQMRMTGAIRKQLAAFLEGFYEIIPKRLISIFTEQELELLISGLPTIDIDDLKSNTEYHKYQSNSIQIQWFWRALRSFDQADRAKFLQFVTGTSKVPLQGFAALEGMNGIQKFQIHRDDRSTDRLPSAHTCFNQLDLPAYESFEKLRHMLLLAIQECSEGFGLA
SDC2, P34741, UniProt P34741, whole entry: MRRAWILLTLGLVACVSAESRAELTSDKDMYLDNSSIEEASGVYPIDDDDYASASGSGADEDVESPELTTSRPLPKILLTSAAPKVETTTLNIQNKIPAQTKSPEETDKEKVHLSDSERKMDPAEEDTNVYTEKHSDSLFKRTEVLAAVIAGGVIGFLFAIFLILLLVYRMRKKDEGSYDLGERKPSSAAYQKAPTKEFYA
SRSF1, Q07955, UniProt Q07955, whole entry: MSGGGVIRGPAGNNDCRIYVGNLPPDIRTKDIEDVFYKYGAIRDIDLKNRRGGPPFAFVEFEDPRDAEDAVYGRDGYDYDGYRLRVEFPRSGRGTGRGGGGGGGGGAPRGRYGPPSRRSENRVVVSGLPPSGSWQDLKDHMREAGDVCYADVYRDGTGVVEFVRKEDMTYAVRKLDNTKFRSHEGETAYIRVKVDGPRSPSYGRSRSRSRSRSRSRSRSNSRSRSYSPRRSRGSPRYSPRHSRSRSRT
NELFE, P18615, UniProt P18615, whole entry: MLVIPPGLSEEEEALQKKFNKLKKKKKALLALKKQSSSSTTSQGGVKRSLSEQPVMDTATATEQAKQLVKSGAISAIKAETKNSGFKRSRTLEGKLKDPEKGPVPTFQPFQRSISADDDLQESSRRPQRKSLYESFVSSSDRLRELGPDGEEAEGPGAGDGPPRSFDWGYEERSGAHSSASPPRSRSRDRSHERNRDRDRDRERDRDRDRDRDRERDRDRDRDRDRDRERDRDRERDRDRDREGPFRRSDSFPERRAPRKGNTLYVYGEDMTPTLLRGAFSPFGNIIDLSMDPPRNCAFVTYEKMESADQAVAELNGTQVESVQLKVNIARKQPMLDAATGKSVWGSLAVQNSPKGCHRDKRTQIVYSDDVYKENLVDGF

Key:
Experiment in all cases: PRISMA enrichment of interactor (LFQ) in peptide spot vs all other peptide spots (log2 fold change); higher = stronger / more specific binding of the interactor to the peptide
[1] = target: AHCY, P23526
Procedure: (§1)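 PRISMA: 15-aa overlapping tiles (offset 8 aa) of 60 microproteins, plus SOS1/GLUT1 control peptides, were spot-synthesized on cellulose membranes in triplicate. Membranes were incubated with benzonase-treated HEK293T lysate, and bound proteins were identified by LC-MS/MS with LFQ. Enrichment is the log2 fold change of each protein in one spot versus all other spots. Only interactors passing the significance cutoff are listed.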

[2] = target: C19orf47, Q8N9M1
Procedure: as §1

[3] = target: DHX36, Q9H2U1
Procedure: as §1

[4] = target: EIF3B, P55884
Procedure: as §1

[5] = target: EIF3J, O75822
Procedure: as §1

[6] = target: IDH3A, P50213
Procedure: as §1

[7] = target: KPNA3, O00505
Procedure: as §1

[8] = target: LRRC40, Q9H9A6
Procedure: as §1

[9] = target: MRPL23, Q16540
Procedure: as §1

[10] = target: MRPS5, P82675
Procedure: as §1

[11] = target: MRPS7, Q9Y2R9
Procedure: as §1

[12] = target: PFDN6, O15212
Procedure: as §1

[13] = target: POLR2G, P62487
Procedure: as §1

[14] = target: RANBP1, P43487
Procedure: as §1

[15] = target: SHQ1, Q6PI26
Procedure: as §1

[16] = target: TOP2B, Q02880
Procedure: as §1

[17] = target: AHSA1, O95433
Procedure: as §1

[18] = target: FANCD2, Q9BXW9
Procedure: as §1

[19] = target: HAL, P42357
Procedure: as §1

[20] = target: PPIL1, Q9Y3C6
Procedure: as §1

[21] = target: RCN2, Q14257
Procedure: as §1

[22] = target: AHNAK, Q09666
Procedure: as §1

[23] = target: AP3D1, O14617
Procedure: as §1

[24] = target: ASNS, P08243
Procedure: as §1

[25] = target: CDC42SE2, Q9NRR3
Procedure: as §1

[26] = target: CEP290, O15078
Procedure: as §1

[27] = target: CREB1, P16220
Procedure: as §1

[28] = target: DSC1, Q08554
Procedure: as §1

[29] = target: ECPAS, Q5VYK3
Procedure: as §1

[30] = target: GABARAPL2, P60520
Procedure: as §1

[31] = target: KARS, Q15046
Procedure: as §1

[32] = target: MLIP, Q5VWP3
Procedure: as §1

[33] = target: MRPS9, P82933
Procedure: as §1

[34] = target: MYH9, P35579
Procedure: as §1

[35] = target: NOL7, Q9UMY1
Procedure: as §1

[36] = target: PGRMC2, O15173
Procedure: as §1

[37] = target: PRDX6, P30041
Procedure: as §1

[38] = target: PRRC2A, P48634
Procedure: as §1

[39] = target: PSRC1, Q6PGN9
Procedure: as §1

[40] = target: RTCB, Q9Y3I0
Procedure: as §1

[41] = target: SDCBP, O00560
Procedure: as §1

[42] = target: SUGT1, Q9Y2Z0
Procedure: as §1

[43] = target: TIMM50, Q3ZCQ8
Procedure: as §1

[44] = target: VPS25, Q9BRG1
Procedure: as §1

[45] = target: XPO7, Q9UIA9
Procedure: as §1

[46] = target: ATP6V1G1, O75348
Procedure: as §1

[47] = target: ATRN, O75882
Procedure: as §1

[48] = target: BAG4, O95429
Procedure: as §1

[49] = target: CDIPT, O14735
Procedure: as §1

[50] = target: CMAS, Q8NFW8
Procedure: as §1

[51] = target: CTNND1, O60716
Procedure: as §1

[52] = target: EIF1AX, P47813
Procedure: as §1

[53] = target: GTF2I, P78347
Procedure: as §1

[54] = target: HUWE1, Q7Z6Z7
Procedure: as §1

[55] = target: LLPH, Q9BRT6
Procedure: as §1

[56] = target: MAZ, P56270
Procedure: as §1

[57] = target: MRPL27, Q9P0M9
Procedure: as §1

[58] = target: MRPS15, P82914
Procedure: as §1

[59] = target: PPP1R12A, O14974
Procedure: as §1

[60] = target: PYM1, Q9BRP8
Procedure: as §1

[61] = target: RPS29, P62273
Procedure: as §1

[62] = target: RSRC2, Q7L4I2
Procedure: as §1

[63] = target: SDC2, P34741
Procedure: as §1

[64] = target: SFXN2, Q96NB2
Procedure: as §1

[65] = target: SOAT1, P35610
Procedure: as §1

[66] = target: SRSF1, Q07955
Procedure: as §1

[67] = target: SRSF4, Q08170
Procedure: as §1

[68] = target: TAF15, Q92804
Procedure: as §1

[69] = target: TIAL1, Q01085
Procedure: as §1

[70] = target: UTP11, Q9Y3A2
Procedure: as §1

[71] = target: XRN2, Q9H0D6
Procedure: as §1

[72] = target: AHCTF1, Q8WYP5
Procedure: as §1

[73] = target: ALYREF, Q86V81
Procedure: as §1

[74] = target: BHMT, Q93088
Procedure: as §1

[75] = target: CGN, Q9P2M7
Procedure: as §1

[76] = target: CSDE1, O75534
Procedure: as §1

[77] = target: EIF2D, P41214
Procedure: as §1

[78] = target: GATA6, Q92908
Procedure: as §1

[79] = target: NELFE, P18615
Procedure: as §1

[80] = target: NOP58, Q9Y2X3
Procedure: as §1

[81] = target: NTMT1, Q9BV86
Procedure: as §1

[82] = target: NUP85, Q9BW27
Procedure: as §1

[83] = target: PNO1, Q9NRX1
Procedure: as §1

[84] = target: PSPC1, Q8WXF1
Procedure: as §1

[85] = target: PTGES3, Q15185
Procedure: as §1

[86] = target: TCAF1, Q9Y4C2
Procedure: as §1

[87] = target: AHSG, P02765
Procedure: as §1

[88] = target: CKAP2, Q8WWK9
Procedure: as §1

[89] = target: CKAP5, Q14008
Procedure: as §1

[90] = target: CSNK1A1, P48729
Procedure: as §1

[91] = target: EP300, Q09472
Procedure: as §1

[92] = target: HAT1, O14929
Procedure: as §1

[93] = target: NOP16, Q9Y3C1
Procedure: as §1

[94] = target: NQO2, P16083
Procedure: as §1

[95] = target: NSD2, O96028
Procedure: as §1

[96] = target: SLAIN2, Q9P270
Procedure: as §1

[97] = target: SLC25A24, Q6NUK1
Procedure: as §1

[98] = target: TIMM44, O43615
Procedure: as §1

RLFGQQQRATAAPLR [RNF10]
PRISMA enrichment of interactor (log2) [1]: 6.29 | PRISMA enrichment of interactor (log2) [2]: 4.43 | PRISMA enrichment of interactor (log2) [3]: 5.98 | PRISMA enrichment of interactor (log2) [4]: 5.38 | PRISMA enrichment of interactor (log2) [5]: 5.66 | PRISMA enrichment of interactor (log2) [6]: 9.42 | PRISMA enrichment of interactor (log2) [7]: 5.46 | PRISMA enrichment of interactor (log2) [8]: 6.13 | PRISMA enrichment of interactor (log2) [9]: 5.42 | PRISMA enrichment of interactor (log2) [10]: 6.59 | PRISMA enrichment of interactor (log2) [11]: 6.96 | PRISMA enrichment of interactor (log2) [12]: 6.28 | PRISMA enrichment of interactor (log2) [13]: 4.16 | PRISMA enrichment of interactor (log2) [14]: 6 | PRISMA enrichment of interactor (log2) [15]: 4.37 | PRISMA enrichment of interactor (log2) [16]: 8.18

MRQGFHRRTWSKNSH [PEX2]
PRISMA enrichment of interactor (log2) [17]: 4.78 | PRISMA enrichment of interactor (log2) [18]: 4.51 | PRISMA enrichment of interactor (log2) [19]: 4.48 | PRISMA enrichment of interactor (log2) [20]: 4.17 | PRISMA enrichment of interactor (log2) [21]: 7.73

IGGACFRVSRLSPTE [ZEB2]
PRISMA enrichment of interactor (log2) [22]: 8.1 | PRISMA enrichment of interactor (log2) [23]: 4.91 | PRISMA enrichment of interactor (log2) [24]: 4.47 | PRISMA enrichment of interactor (log2) [25]: 4.64 | PRISMA enrichment of interactor (log2) [26]: 6.17 | PRISMA enrichment of interactor (log2) [27]: 4.13 | PRISMA enrichment of interactor (log2) [28]: 4.55 | PRISMA enrichment of interactor (log2) [29]: 5.11 | PRISMA enrichment of interactor (log2) [30]: 5.54 | PRISMA enrichment of interactor (log2) [31]: 4.83 | PRISMA enrichment of interactor (log2) [32]: 4.68 | PRISMA enrichment of interactor (log2) [33]: 6.13 | PRISMA enrichment of interactor (log2) [34]: 7.4 | PRISMA enrichment of interactor (log2) [35]: 5.59 | PRISMA enrichment of interactor (log2) [36]: 5.46 | PRISMA enrichment of interactor (log2) [37]: 4.11 | PRISMA enrichment of interactor (log2) [38]: 7.67 | PRISMA enrichment of interactor (log2) [39]: 5.16 | PRISMA enrichment of interactor (log2) [40]: 5.23 | PRISMA enrichment of interactor (log2) [41]: 4.92 | PRISMA enrichment of interactor (log2) [42]: 5.14 | PRISMA enrichment of interactor (log2) [43]: 5.48 | PRISMA enrichment of interactor (log2) [44]: 4.32 | PRISMA enrichment of interactor (log2) [45]: 7.55

TGAAAVSGEGRRMQR [C5orf56]
PRISMA enrichment of interactor (log2) [17]: 9.86 | PRISMA enrichment of interactor (log2) [46]: 7.89 | PRISMA enrichment of interactor (log2) [47]: 4.54 | PRISMA enrichment of interactor (log2) [48]: 6.81 | PRISMA enrichment of interactor (log2) [49]: 10.3 | PRISMA enrichment of interactor (log2) [50]: 3.9 | PRISMA enrichment of interactor (log2) [51]: 4.54 | PRISMA enrichment of interactor (log2) [52]: 5.08 | PRISMA enrichment of interactor (log2) [18]: 7.95 | PRISMA enrichment of interactor (log2) [53]: 4.56 | PRISMA enrichment of interactor (log2) [54]: 6.11 | PRISMA enrichment of interactor (log2) [55]: 4.24 | PRISMA enrichment of interactor (log2) [56]: 5.49 | PRISMA enrichment of interactor (log2) [57]: 8.04 | PRISMA enrichment of interactor (log2) [58]: 5.13 | PRISMA enrichment of interactor (log2) [59]: 4.7 | PRISMA enrichment of interactor (log2) [60]: 5.14 | PRISMA enrichment of interactor (log2) [61]: 4.33 | PRISMA enrichment of interactor (log2) [62]: 4.9 | PRISMA enrichment of interactor (log2) [63]: 5.81 | PRISMA enrichment of interactor (log2) [64]: 5.83 | PRISMA enrichment of interactor (log2) [65]: 4.57 | PRISMA enrichment of interactor (log2) [66]: 5.41 | PRISMA enrichment of interactor (log2) [67]: 5.73 | PRISMA enrichment of interactor (log2) [68]: 5 | PRISMA enrichment of interactor (log2) [69]: 5.32 | PRISMA enrichment of interactor (log2) [70]: 8.91 | PRISMA enrichment of interactor (log2) [71]: 4.57

TGLSSFWEMHFASSR [RP11-432J24.5_2]
PRISMA enrichment of interactor (log2) [72]: 5.89 | PRISMA enrichment of interactor (log2) [73]: 9.66 | PRISMA enrichment of interactor (log2) [74]: 4.61 | PRISMA enrichment of interactor (log2) [75]: 6.87 | PRISMA enrichment of interactor (log2) [76]: 7.47 | PRISMA enrichment of interactor (log2) [77]: 4.89 | PRISMA enrichment of interactor (log2) [78]: 4.9 | PRISMA enrichment of interactor (log2) [79]: 4.48 | PRISMA enrichment of interactor (log2) [80]: 4.89 | PRISMA enrichment of interactor (log2) [81]: 5.83 | PRISMA enrichment of interactor (log2) [82]: 5.69 | PRISMA enrichment of interactor (log2) [83]: 6.66 | PRISMA enrichment of interactor (log2) [84]: 6.76 | PRISMA enrichment of interactor (log2) [85]: 4.78 | PRISMA enrichment of interactor (log2) [86]: 4.74

VVPRQLNFCISSGSR [RP11-140K17.3_2]
PRISMA enrichment of interactor (log2) [87]: 3.68 | PRISMA enrichment of interactor (log2) [88]: 5.2 | PRISMA enrichment of interactor (log2) [89]: 6.25 | PRISMA enrichment of interactor (log2) [90]: 6.32 | PRISMA enrichment of interactor (log2) [91]: 4.02 | PRISMA enrichment of interactor (log2) [92]: 6.68 | PRISMA enrichment of interactor (log2) [93]: 4.73 | PRISMA enrichment of interactor (log2) [94]: 4.47 | PRISMA enrichment of interactor (log2) [95]: 6.18 | PRISMA enrichment of interactor (log2) [14]: 5.76 | PRISMA enrichment of interactor (log2) [96]: 5.85 | PRISMA enrichment of interactor (log2) [97]: 5.89 | PRISMA enrichment of interactor (log2) [98]: 4.26
